Experimental data published in patent US6402037B1, “Two-photon upconverting dyes and applications” (The Research Foundation of State University of New York, priority 1995, dated 2002).
Values joined by “and” are separate entries in the source; they are usually repeats but may differ in a detail not shown here. Equal values may be shown once. Marks after values point to notes of the source that are not given here.

How the values were obtained:
[1] = Two-photon pumped cavity lasing of APSS solution filled hollow fiber (800 nm pump)
Source text: As a comparison, the absorption spectrum of 1 mm-path length pure solvent (DMSO) is also provided. There is a strong absorption band around 400 nm due to APSS dye, and the solution is transparent in the 570˜1100 nm spectral range. However, the two-photon energy of ˜800 nm IR radiation falls into the strong absorption band. Therefore, an effective TPA process is expected by ˜800 nm excitation. […] The same effect is expected with increased path length of the solution sample with a given concentration.
The input 800 nm pump IR laser beam was provided by a pulsed dye laser pumped with a Q-switched and frequency-doubled Nd: YAG laser source. The beam size, pulse duration, angular divergence, and repetition rate of the input pump laser radiation were ˜3 mm, ˜5 ns, ˜1 mrad, and 1-10 Hz, respectively. The pump beam was focused by a 4×-microscope objective into the input end of a 15-cm long hollow quartz fiber filled with APSS, prepared as described in Example 16, in DMSO (do=0.012 M). The internal diameter of the hollow fiber sample was 100 μm, and the two open ends of the fiber were immersed in two identical liquid coupling cells which were filled with the same dye solution. Each cell was equipped with an optical window. Two mirrors were adapted to form the optical cavity. The front cavity mirror (M1) was a plane dielectric coating mirror with a reflectivity of 40% at ˜565 nm and ˜1.06 μm. The optical path between the back mirror M2 and the output fiber end was 2 cm. The total optical path length of the cavity was ˜30 cm. Under the excitation of the input 800 nm pump beam, a strong TPA induced green fluorescence emission was seen from the hollow fiber. Once the input pump intensity increased to a threshold level, very intense backward cavity lasing was observed through a beam spitter (BS). […]
The spectral intensity distribution of two-photon pumped cavity lasing from the above system is shown in FIG. 16 (dashed curve) at a pump energy level of Eo=290 μJ. For comparison, the one photon (at 400 nm) induced fluorescence spectrum of the same dye solution with the same concentration is also shown in FIG. 16 (solid curve). The bandwidth of cavity lasing was much narrower than the bandwidth of corresponding one-photon induced fluorescence emission without using any intracavity dispersion element. […] Therefore, the blue-side and central range of the fluorescence band would be expected to be more difficult to lase.
The measured single-pulse waveform was recorded by using a fast photodiode detector in conjunction with a 350 MHz oscilloscope (Tektronix 2467 with C1001 video camera). […] At a pump level of ˜150 μJ, the measured one-pass two-photon absorption in the 15 cm-long dye solution filled hollow fiber sample was only about ˜25%. […]

[2] = Two-photon photobleaching data storage in APSS-containing HEMA block
[3] = Optical characterization of the solution state (ethanol)
[4] = Two-photon pumped cavity lasing of dye-doped matrices (1.06 μm pump); details: for lasing peak: 1.06 μm pump; for lasing pulsewidth: 10 ns pump pulse
Method: Two-photon pumped cavity lasing experiments were conducted using a Q-switched Nd-YAG pulsed laser source having a wavelength of 1.06 μm, a pulsewidth of about 10 ns, a spectral width of about 1 cm^−1, an angular divergence of about 1.3 mrad, and a variable repetition rate of 1-10 Hz. A 1 cm-long quartz cuvette filled with dye1 solution in cyclopentanone (do≈8×10^−2 to 4×10^−2M) and a 7 mm-long, dye1 -doped poly(HEMA) rod (do,≈8×10^−3 M), prepared in accordance with Example 12, were used separately for two-photon pumped (“TPP”) lasing observation. The 1.06 μm-pump laser beam was focused on the center of the cuvette or sample rod, and a strong orange-red fluorescence emission was observed when the infrared pump intensity reached several MW/cm^2. Once the pump intensity further increased to a certain threshold level, simultaneous forward and backward highly directional superradiation could be observed from the solution or rod samples. To achieve cavity lasing, two parallel plane dielectrc-coating mirrors were employed to form a cavity. The pump beam, focused through a f-10 cm lens, was coupled into the cavity by normal incidence. The reflectivity was r=10% at 1.06 μm and r=99% at 600 nm for the front mirror (input coupler) and r=10% at 1.06 μm and r=50% at 600 nm for the rear mirror (output coupler). The total cavity length was 7˜8 cm, and the cuvette or sample rod was located at the center of the cavity. […] FIGS. 11A-11C show the emission spectra of the same 7 mm-long, dye1 -doped rod sample under the following different excitation conditions: 532 nm one-photon excited fluorescence emission (FIG. 11A), 1.06 μm two-photon excited fluorescence emission (FIG. 11B), and 1.06 μm pumped cavity lasing (FIG. 11C). Each spectrum was obtained using a grating -spectrograph in conjunction with an optical multi-channel analyzer (OMA-III) system. The difference between FIGS. 11A and 11B can be explained by a volume reabsorption effect of the emission. To obtain these two spectra, the excitation beam was incident on the rod end at a +45° angle, and the fluorescence was measured at a −45° angle. In the case of FIG. 11A, the emission was mainly from a shallow surface layer of the sample because of the very short penetration depth of the 532 nm pump radiation, and therefore, the reabsorption effect within the sample can be neglected. However, for the case of FIG. 11B, the incident infrared beam could pass through the whole rod length without obvious depletion, and, consequently, collected fluorescence signals of different spectral components were propagated within the sample for a considerable distance. […] Cavity lasing occurred at the central region of the two-photon absorption (“TPA”) induced fluorescence band, but the lasing bandwidth (˜8 nm) was much narrower than the ordinary one-photon excited fluorescence band width (˜60 nm) due to the lasing threshold requirement. In addition, a red-shift of the central lasing wavelength was observed as the pump energy increased. This shift may be caused by the local temperature change of the sample rod.
Compared to the smooth temporal profile of the 10 ns pump pulse, the lasing pulses manifested much shorter rise- and fall-times, i.e. ≦1.5 ns limited by the resolution of the detecting system. In addition, the lasing pulse duration (˜1.5 ns at a moderate pump level) was much less than the pump pulse duration.
The lasing output/pump input characteristic curve is given in FIG. 13 for the rod cavity lasing. Each data point was an average result over 10 laser pulses by using a gated integrator and boxcar averager system, and the solid line is the best fitted curve based on the square law that should be followed for a two-photon excitation process. The energy conversion efficiency from pump input to lasing output was estimated as η≈0.8% at input energy level of 1.3 mJ. However, at this pump level the measured one-pass two-photon absorption in the 7 mm-long rod was only about 23%. […]

[5] = Infrared detection: visible emission of dye-doped film exposed to 1.06 μm Nd-YAG laser
[6] = 7 mm poly(HEMA) rod, input 1.3 mJ
[7] = cyclopentanone solution, 0.003 M

CN(CCO)c1ccc(C=Cc2ccc(S(=O)(=O)CCCCCCO)cc2)cc1 [APSS]
one-pass two-photon absorption ([1]; 15 cm hollow fiber, pump ˜150 μJ): ~25%
central lasing wavelength ([1]; DMSO 0.012 M, 15 cm hollow fiber, 800 nm pump, 290 μJ): ~565 nm
net conversion efficiency from absorbed pump energy to lasing output η ([1]; pump ˜150 μJ): ≈ 2.3%
pump threshold for lasing ([1]; solution filled hollow fiber): 20 to 30 µJ
two-photon induced fluorescence at focal point ([2]; HEMA block, 798 nm Ti:Sapphire): strong two-photon induced green fluorescence
photobleaching during reading ([2]; faster scan, dose reduced by over two orders of magnitude): no noticeable photobleaching occurred

CCN(CCO)c1ccc(/C=C/c2cc[n+](CCO)cc2)cc1.[I-] [ASPI, trans-4-[p-(N-ethyl-N-hydroxyethylamino)styryl]-N-hydroxyethylpyridinium iodide]
concentration of highest lasing slope efficiency [3]: 820 µM
tunability FWHM [3]: approximately 37 nm
Lasing Tunability ([3]; 532 nm pump, 2 Hz, grating): 599-635 nm
two-photon pumped cavity lasing ([4]; dye-doped sol gel glass): observed

CCN(CCO)c1ccc(/C=C/c2cc[n+](C)cc2)cc1.c1ccc([B-](c2ccccc2)(c2ccccc2)c2ccccc2)cc1 [dye1, trans-4-[p-(N-ethyl-N-hydroxyethylamino)styryl]-N-methylpyridinium tetraphenyborate]
emission intensity dependence on incident infrared laser beam intensity ([5]; 50 μm polyurethane film, 1.06 μm Nd-YAG laser): quadratic dependence
visible emission on exposure to infrared beam ([5]; polyurethane film, 1.06 μm, several MW/cm^2): localized bright red emission
lasing life time (pulses before pulse energy decreased to 10˜15% of initial) ([4]; 2 Hz, without cooling): > 4×10^4 pulses
conversion efficiency from absorbed pump energy to lasing output ([4]; 7 mm poly(HEMA) rod, corrected): 3.5%
energy conversion efficiency from pump input to lasing output η [4, 6]: ≈ 0.8%
one-pass two-photon absorption [4, 6]: about 23%
lasing bandwidth ([4]; Vycor glass 0.0015M): 8 nm
lasing peak ([4]; Vycor glass 0.0015M): 600 nm
lasing pulsewidth ([4]; Vycor glass 0.0015M): 2 ns
lasing bandwidth [4, 7]: 14^b nm
lasing peak [4, 7]: 623^b nm
lasing pulsewidth [4, 7]: 1.5^b ns
two-photon pumped cavity lasing ([4]; dye-doped Vycor glass): observed
lasing pulse rise- and fall-times ([4]; dye-doped polymer rod, limited by detector resolution): ≤ 1.5 ns
two-photon pumped cavity lasing ([4]; dye-doped sol gel glass): observed
lasing bandwidth ([4]; poly(HEMA) 0.008M): ≈ 8 nm and 8 nm
lasing peak ([4]; poly(HEMA) 0.008M): 597 nm
lasing pulsewidth ([4]; poly(HEMA) 0.008M): ~1.5 ns and 2 ns
lasing bandwidth ([4]; sol-gel glass 0.0015 M): 8 nm
lasing peak ([4]; sol-gel glass 0.0015 M): 590 nm
lasing pulsewidth ([4]; sol-gel glass 0.0015 M): 1.5 ns

CN(C)c1ccc(/C=C/c2cc[n+](C)cc2)cc1.c1ccc([B-](c2ccccc2)(c2ccccc2)c2ccccc2)cc1 [dye2, trans-4-[p-(N,N-dimethylamino)styryl]-N-methylpyridinium tetraphenyborate]
two-photon pumped cavity lasing ([4]; dye-doped sol gel glass): observed

trans-4-[p-(-ethyl-N-hydroxyethylamino)styryl]-N-butansulfonpyridinum [dye4]
two-photon pumped cavity lasing ([4]; dye-doped sol gel glass): observed
